Earlier results, collected in US20250032450A1, “[…] INHALABLE FORMULATIONS” (Cybin UK Ltd., priority 2021, published 2025).
At least one compound was matched to its structure with a doubt left.

Details: randomised double blind studies; cited from earlier work

CN(C)CCc1c[nH]c2cccc(OP(=O)(O)O)c12 [psilocybin, [3-(2-Dimethylaminoethyl)-1H-indol-4-yl] dihydrogen phosphate]
depression and anxiety rating scales: significant improvement
